Measurements taken from article PMC3682188, “Membrane Binding and Self-Association of the Epsin N-Terminal Homology Domain” (Journal of Molecular Biology, 2012).
Results are given in words; binding and its absence hold for the method and conditions named. Some binding calls cover weakened binding; strength is not graded here.

Protein sequences, listed by entry. Tags and fused reporters are not part of them. Lines headed by an entry give the natural chain unless they say otherwise; changes in a name come on top. Chains listed by the source or under a name are the forms on record and can include a tag or linker.
rat epsin 1 ENTH domain (1-164), spin-labeled derivative 13R1 (O88339, form named): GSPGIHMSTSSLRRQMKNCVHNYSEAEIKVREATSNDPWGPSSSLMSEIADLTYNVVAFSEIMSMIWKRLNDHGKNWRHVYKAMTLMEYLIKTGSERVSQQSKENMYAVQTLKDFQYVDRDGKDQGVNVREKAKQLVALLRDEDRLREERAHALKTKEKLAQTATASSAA
rat epsin 1 ENTH domain (1-164), spin-labeled derivative 4R1 (O88339, form named): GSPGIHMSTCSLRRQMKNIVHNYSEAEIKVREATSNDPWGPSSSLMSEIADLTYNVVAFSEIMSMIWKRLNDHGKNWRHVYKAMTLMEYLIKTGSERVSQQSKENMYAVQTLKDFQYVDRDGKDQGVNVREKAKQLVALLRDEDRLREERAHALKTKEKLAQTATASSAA
rat epsin 1 ENTH domain (1-164), spin-labeled derivative 6R1 (O88339, form named): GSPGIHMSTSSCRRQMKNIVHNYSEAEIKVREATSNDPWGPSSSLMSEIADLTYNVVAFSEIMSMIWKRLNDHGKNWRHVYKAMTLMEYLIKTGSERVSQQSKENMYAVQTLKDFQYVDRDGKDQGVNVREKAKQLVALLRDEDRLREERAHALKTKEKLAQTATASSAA
rat epsin 1 ENTH domain (1-164), spin-labeled derivative 5R1 (O88339, form named): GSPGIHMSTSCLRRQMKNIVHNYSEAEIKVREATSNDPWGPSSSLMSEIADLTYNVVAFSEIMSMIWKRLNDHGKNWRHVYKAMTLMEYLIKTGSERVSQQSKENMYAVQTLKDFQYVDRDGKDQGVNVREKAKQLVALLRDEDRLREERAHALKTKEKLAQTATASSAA

What was measured:
[1] = target: rat epsin 1 ENTH domain (1-164), spin-labeled derivative 13R1 (rat) (UniProt O88339); assay: EPR spectroscopy (spin-spin interaction of singly labeled protein); bound to preformed tubules, frozen state; data not shown; both purified
[2] = target: rat epsin 1 ENTH domain (1-164), spin-labeled derivative 13R1 (rat) (UniProt O88339); assay: EPR spectroscopy (spin-spin interaction of singly labeled protein, with spin dilution); bound to preformed lipid tubules (10% cholesterol/40% phosphatidylcholine/40% galactocerebrosides/10% PIP2); 10 uM protein with 60 ug tubes in 100 ul, 10 min at RT, pelleted at 152,800g; 20 mM Hepes pH 7.4, 150 mM NaCl; fully labeled compared with 33% labeled and 67% unlabeled protein; both …
[3] = target: rat epsin 1 ENTH domain (1-164), spin-labeled derivative 4R1 (rat) (UniProt O88339); assay: EPR spectroscopy (spin-spin interaction of singly labeled protein); bound to preformed tubules, frozen state; data not shown; both purified
[4] = target: rat epsin 1 ENTH domain (1-164), spin-labeled derivative 4R1 (rat) (UniProt O88339); assay: EPR spectroscopy (spin-spin interaction of singly labeled protein, with spin dilution); bound to preformed lipid tubules (10% cholesterol/40% phosphatidylcholine/40% galactocerebrosides/10% PIP2); 10 uM protein with 60 ug tubes in 100 ul, 10 min at RT, pelleted at 152,800g; 20 mM Hepes pH 7.4, 150 mM NaCl; fully labeled compared with 33% labeled and 67% unlabeled protein; both …
[5] = target: rat epsin 1 ENTH domain (1-164), spin-labeled derivative 6R1 (rat) (UniProt O88339); assay: EPR spectroscopy (spin-spin interaction of singly labeled protein); bound to preformed tubules, frozen state; data not shown; both purified
[6] = target: rat epsin 1 ENTH domain (1-164), spin-labeled derivative 6R1 (rat) (UniProt O88339); assay: EPR spectroscopy (spin-spin interaction of singly labeled protein, with spin dilution); bound to preformed lipid tubules (10% cholesterol/40% phosphatidylcholine/40% galactocerebrosides/10% PIP2); 10 uM protein with 60 ug tubes in 100 ul, 10 min at RT, pelleted at 152,800g; 20 mM Hepes pH 7.4, 150 mM NaCl; fully labeled compared with 33% labeled and 67% unlabeled protein; both …
[7] = target: rat epsin 1 ENTH domain (1-164), spin-labeled derivative 5R1 (rat) (UniProt O88339); assay: EPR spectroscopy (spin-spin interaction of singly labeled protein); bound to preformed tubules, frozen state; data not shown; both purified
[8] = target: rat epsin 1 ENTH domain (1-164), spin-labeled derivative 5R1 (rat) (UniProt O88339); assay: EPR spectroscopy (spin-spin interaction of singly labeled protein, with spin dilution); bound to preformed lipid tubules (10% cholesterol/40% phosphatidylcholine/40% galactocerebrosides/10% PIP2); 10 uM protein with 60 ug tubes in 100 ul, 10 min at RT, pelleted at 152,800g; 20 mM Hepes pH 7.4, 150 mM NaCl; fully labeled compared with 33% labeled and 67% unlabeled protein; both …

With “rat epsin 1 ENTH domain (1-164), spin-labeled derivative 13R1 (from UniProt O88339 1-164) (domain or fragment)” the binding [1] was “binds” and the binding [2] was “binds”.
With “rat epsin 1 ENTH domain (1-164), spin-labeled derivative 4R1 (from UniProt O88339 1-164) (domain or fragment)” the binding [3] was “binds” and the binding [4] was “binds”.
With “rat epsin 1 ENTH domain (1-164), spin-labeled derivative 6R1 (from UniProt O88339 1-164) (domain or fragment)” the binding [5] was “binds” and the binding [6] was “binds”.
For “rat epsin 1 ENTH domain (1-164), spin-labeled derivative 5R1 (from UniProt O88339 1-164) (domain or fragment)”, the binding [7] was “binds” and the binding [8] was “binds”.
